PMC11053914 (Viruses, 2024)
These are yes or no findings as the source states them, for the method shown. Binding seen in cells or lysates may run through a third protein. Some results given as binding are weak or reduced against the parent protein; the word gives no strength.

The chains behind the UniProt entries cited, without tags or fusion partners.
UniProt P69723: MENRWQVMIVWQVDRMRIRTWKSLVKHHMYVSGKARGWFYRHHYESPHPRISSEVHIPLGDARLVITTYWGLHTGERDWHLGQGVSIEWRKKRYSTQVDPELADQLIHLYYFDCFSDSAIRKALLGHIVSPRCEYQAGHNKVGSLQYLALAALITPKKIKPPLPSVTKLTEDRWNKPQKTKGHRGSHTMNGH
UniProt Q13951: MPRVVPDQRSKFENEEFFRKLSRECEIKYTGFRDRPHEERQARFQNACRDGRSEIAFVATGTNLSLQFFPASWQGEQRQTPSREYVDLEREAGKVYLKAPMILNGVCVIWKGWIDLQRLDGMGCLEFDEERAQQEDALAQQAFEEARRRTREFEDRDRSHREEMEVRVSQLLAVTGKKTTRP

Target: Vif-HA (HIV-1) (UniProt P69723)
Experiment: co-IP

CBFβ-cmyc (from UniProt Q13951 1-182)
binding: binds
